# Test results published in publication PMC4226669, “Anti-cancer potency of tasquinimod is enhanced via albumin-binding facilitating increased uptake in the tumor microenvironment” (Oncotarget, 2014).
# System: CWR-22Rv1 prostate cancers
# Experiment: Vascular volume, albumin-Evans Blue accumulation (EPR effect) and growth in CWR-22Rv1 bearing mice treated with tasquinimod
# Type: in vivo, mouse
# Procedure: To evaluate the potential importance of an EPR effect for enhancing tumor specific tasquinimod uptake and thus anti-cancer potency, albumin retention in plasma and normal tissue vs. prostate cancer was determined. To do this, nude mice bearing CWR-22Rv1 prostate cancers were injected intravenously (IV) with Evans Blue (EB) at a dose (10mg/kg) so that all of the dye is initially bound to albumin within the blood. Twenty-four hours later, the amount of albumin-EB complex retained in plasma vs. accumulated in liver, kidney, or CWR-22Rv1 prostate cancers determined. The results are expressed as concentration of extractable albumin-EB in plasma vs. the specified tissue. These studies document that prostate cancers accumulate a concentration of albumin-EB that is equal to that in the plasma by 24 hours, Figure 3C. When normalized to vascular volume, the albumin-EB accumulation by prostate cancers is more than two fold greater (p<0.05) compared to liver and more than 8 fold greater (p<0.05) compared to kidney, Figure 3C. […] Such continuous treatment with tasquinimod decreased the vascular volume within the cancers by nearly half (p<0.05), Figure 3C. […] When normalized to this decreased vascular volume, the accumulation of albumin-EB 24 hours post IV injection of the dye in cancers is increased (p<0.05) by 60% compared to non-tasquinimod treated hosts, with no change in normalized accumulation in either the kidney or liver, Figure 3C.
# Tissue vascular volumes for liver, kidney, and CWR-22Rv1 cancers were determined previously via intravenous infusion of^51 Chromium (Perkin Elmer, Shelton, CT) labeled red blood cells and the result expressed as percent vascular volume as described previously.
# EPR effect was determined using Evans Blue as described previously with the modification that 24 hours after the albumin in the blood of tumor bearing nude mice was labeled via IV injection of Evans Blue (EB) at a dose of 10mg/kg, the animals were anesthetized, blood collected, and then animals were perfused with saline to remove blood from the host tissues before harvesting liver, kidney, and prostate cancer xenograft tissue. The results are expressed as the concentration of EB-labeled albumin retained in the blood or specified tissue.
smiles,measurement,setting,value
COc1cccc2c1c(O)c(C(=O)N(C)c1ccc(C(F)(F)F)cc1)c(=O)n2C [Tasquinimod],Albumin-EB Accumulation 24 hours Post IV injection (Kidney),10mg/kg/day for 30 days,6.5 ± 0.8 µM
same,Albumin-EB Accumulation 24 hours Post IV injection (Liver),10mg/kg/day for 30 days,24.8 ± 4.2 µM
same,Albumin-EB Accumulation 24 hours Post IV injection (Plasma),10mg/kg/day for 30 days,12.8 ± 2.9 µM
same,Albumin-EB Accumulation 24 hours Post IV injection (Prostate Cancer),10mg/kg/day for 30 days,13.1 ± 2.2 µM
same,Albumin-EB Accumulation Normalized to Vascular Volume (Kidney),10mg/kg/day for 30 days,0.7±0.2
same,Albumin-EB Accumulation Normalized to Vascular Volume (Liver),10mg/kg/day for 30 days,3.1±0.4
same,Albumin-EB Accumulation Normalized to Vascular Volume (Prostate Cancer),10mg/kg/day for 30 days,9.4±1.0
same,Percent Vascular Volume (Kidney),10mg/kg/day for 30 days,9.6±3.3
same,Percent Vascular Volume (Liver),10mg/kg/day for 30 days,8.5±0.6
same,increase of albumin-EB accumulation in cancers normalized to vascular volume vs non-tasquinimod treated hosts,"24 hours post IV dye, 10 mg/kg/day for a month",60%
